Measurements from article PMC10060354, “Discovery of a small molecule ligand of FRS2 that inhibits invasion and tumor growth” (Cellular Oncology, 2022).

Legend:
[1] = test system: proteins of intact DAOY cells; assay: Thermal proteome profiling (TPP) in intact cells; assay type: cell-based, human
[2] = test system: proteins of DAOY cell lysates; assay: TPP in lysates; assay type: binding, human
[3] = intact DAOY cells, 10 µM, P < 0.05
[4] = DAOY lysates, 10 µM, P value < 0.05

Compound: O=[N+]([O-])c1c(Cl)cc(O)c2c1C1C=CCC1C(c1ccc(Cl)cc1)N2 (centres unmarked) [Compound 7]
- proteins destabilized (number) [1, 3]: 62
- proteins destabilized (percent) [1, 3]: 1.12%
- proteins stabilized (number) [1, 3]: 91
- proteins stabilized (percent) [1, 3]: 1.64%
- candidates with significant Tm difference ([1]; intact DAOY cells, 10 µM, adjusted P value < 0.05): 153
- proteins with a Tm shift of equal or more than 5 °C (percent) ([1]; intact cells): 0.65%
- proteins destabilized (number) [2, 4]: 68
- proteins destabilized (percent) [2, 4]: 1.21%
- proteins stabilized (number) [2, 4]: 62
- proteins stabilized (percent) [2, 4]: 1.1%
- proteins with a Tm shift of equal or more than 5 °C (percent) ([2]; lysate): 0.44%
